Reference: PMC8884907
Results are given in words; binding and its absence hold for the method and conditions named. Binding seen in cells or lysates may run through a third protein. Some entries that bind do so weakly or less than the wild type.

Amino acid sequences for entries named in this document (tags omitted). A change or cut given only in a name is not applied to a line headed by its entry.
UniProt Q9EP80: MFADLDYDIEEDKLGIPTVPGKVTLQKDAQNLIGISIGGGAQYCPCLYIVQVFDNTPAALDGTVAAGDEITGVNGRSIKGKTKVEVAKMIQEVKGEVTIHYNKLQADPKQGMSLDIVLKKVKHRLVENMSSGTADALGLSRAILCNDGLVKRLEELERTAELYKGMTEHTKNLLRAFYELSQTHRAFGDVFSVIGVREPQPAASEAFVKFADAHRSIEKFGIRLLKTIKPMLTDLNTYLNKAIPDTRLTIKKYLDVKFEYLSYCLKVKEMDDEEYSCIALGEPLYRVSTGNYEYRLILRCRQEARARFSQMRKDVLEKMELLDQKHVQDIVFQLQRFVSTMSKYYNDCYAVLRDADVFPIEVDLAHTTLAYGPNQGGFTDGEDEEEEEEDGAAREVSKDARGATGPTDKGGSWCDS

What was measured:
Assay in all cases: co-IP; eGFP-PICK1 WT or coding variants in INS-1E cells; endogenous ICA69 co-precipitated; procedure not shown (supplement)
eGFP-PICK1 R247H (rat) = eGFP-PICK1 R247H (rat) (UniProt Q9EP80)
eGFP-PICK1 R197Q (rat) = eGFP-PICK1 R197Q (rat) (UniProt Q9EP80)
eGFP-PICK1 R158Q (rat) = eGFP-PICK1 R158Q (rat) (UniProt Q9EP80)
eGFP-PICK1 R185Q (rat) = eGFP-PICK1 R185Q (rat) (UniProt Q9EP80)
[1] = target: eGFP-PICK1 WT (eGFP fused to shRNA-insensitive rat PICK1) (rat) (UniProt Q9EP80)

Measured: binding

B1: islet cell autoantigen 69 (ICA69), endogenous (protein, UniProt Q63054 1-480)
chain: MSGHKCYSWELQDRFAQDKSVVNKMQQKYWETKQAFIKATGKKEDEHVVASDADLDAKLELFHSIQRTCLDLSKAIVLYQKRICFLSQEENELGKFLRSQGFQDKTRAGKMMQATGKALCFSSQQRLALRNPLCRFHQEVETFRHRAISDTWLTVNRMEQCRTEYRGALLWMKDVSQELDPDLYKQMEKFRKVQTQVRLAKKNFDKLKMDVCQKVDLLGASRCNLLSHMLATYQTTLLHFWEKTSHTMAAIHESFKGYQPYEFTTLKSLQDPMKKLVEKEKKKSSRRENREAVAQEPRQLISLEEENQHKESSTCQKEEGKSVPSSVDKSSADDACSGPIDELLDVKPEEACLGPMAGTPEPESGDKDDLLLLNEIFSTSSLDEGEFSREWAAVFGDDRLKEPAPMGAQGEPDPKPQIGSAFLPSQLLDQNMKDLQASLQEPAKAASDLTAWFSLFADLDPLSNPDAIGKTDKEHELLNA
binds: all assays above
